Ends that are not written are not given here.
Assay: Circular dichroism, secondary structure contents (CONTIN)
Type: physicochemical
Conditions: CD, 25 °C; for Secondary Structure Contents, Unrd (unordered, random coils), PB (10 mM) / Secondary Structure Contents, α-Helix, PB (10 mM) / Secondary Structure Contents, β-Strands, PB (10 mM): 10 mM PB pH 7.2, peptide 0.5 mg/mL; for Secondary Structure Contents, Unrd, TFE 25% / Secondary Structure Contents, α-Helix, TFE 25% / Secondary Structure Contents, β-Strands, TFE 25%: 25% (v/v) TFE/PB; for Secondary Structure Contents, Unrd, TFE 25% / Secondary Structure Contents, α-Helix, TFE 25% / Secondary Structure Contents, β-Strands, TFE 25% / Secondary Structure Contents, Unrd, TFE 50% / Secondary Structure Contents, α-Helix, TFE 50% / Secondary Structure Contents, β-Strands, TFE 50% / Secondary Structure Contents, Unrd, TFE 75% / Secondary Structure Contents, α-Helix, TFE 75% / Secondary Structure Contents, β-Strands, TFE 75%: 0.5 mg/mL; for Secondary Structure Contents, Unrd, TFE 50% / Secondary Structure Contents, α-Helix, TFE 50% / Secondary Structure Contents, β-Strands, TFE 50%: 50% (v/v) TFE/PB; for Secondary Structure Contents, Unrd, TFE 75% / Secondary Structure Contents, α-Helix, TFE 75% / Secondary Structure Contents, β-Strands, TFE 75%: 75% (v/v) TFE/PB

Substance | Secondary Structure Contents, Unrd (unordered, random coils), PB (10 mM) | Secondary Structure Contents, α-Helix, PB (10 mM) | Secondary Structure Contents, β-Strands, PB (10 mM) | Secondary Structure Contents, Unrd, TFE 25% | Secondary Structure Contents, α-Helix, TFE 25% | Secondary Structure Contents, β-Strands, TFE 25% | Secondary Structure Contents, Unrd, TFE 50% | Secondary Structure Contents, α-Helix, TFE 50% | Secondary Structure Contents, β-Strands, TFE 50% | Secondary Structure Contents, Unrd, TFE 75% | Secondary Structure Contents, α-Helix, TFE 75% | Secondary Structure Contents, β-Strands, TFE 75%
Analog 2: N-terminal segment of SJGAP (VKVGINGFGRIG) | 35% | 6% | 44% | 33% | 5% | 40% | 34% | 4% | 41% | 35% | 5% | 38%
Analog 3: Middle segment of SJGAP (IGRLVTRAAFHG) | 39% | 5% | 33% | 35% | 6% | 37% | 30% | 15% | 33% | 31% | 18% | 29%
HGKKVEIVAIND [Analog 4] | 39% | 6% | 32% | 37% | 5% | 32% | 35% | 4% | 39% | 33% | 6% | 34%

— publication PMC8944596, “Determination of the Relationships between the Chemical Structure and Antimicrobial Activity of a GAPDH-Related Fish Antimicrobial Peptide and Analogs Thereof” (Antibiotics, 2022)
